Test results published in article PMC10681007, “Targeted Degradation of XIAP is Sufficient and Specific to Induce Apoptosis in MYCN-overexpressing High-risk Neuroblastoma” (Cancer Research Communications, 2023).
Not every entry of the source has a single result; some have several. They are shown here; other results are not. There may be further records. The records of an entry seem to repeat one measurement; a mean can stand among them.

By UniProt entry, the sequences of proteins in these tests, tags left out.
UniProt P98170, whole entry: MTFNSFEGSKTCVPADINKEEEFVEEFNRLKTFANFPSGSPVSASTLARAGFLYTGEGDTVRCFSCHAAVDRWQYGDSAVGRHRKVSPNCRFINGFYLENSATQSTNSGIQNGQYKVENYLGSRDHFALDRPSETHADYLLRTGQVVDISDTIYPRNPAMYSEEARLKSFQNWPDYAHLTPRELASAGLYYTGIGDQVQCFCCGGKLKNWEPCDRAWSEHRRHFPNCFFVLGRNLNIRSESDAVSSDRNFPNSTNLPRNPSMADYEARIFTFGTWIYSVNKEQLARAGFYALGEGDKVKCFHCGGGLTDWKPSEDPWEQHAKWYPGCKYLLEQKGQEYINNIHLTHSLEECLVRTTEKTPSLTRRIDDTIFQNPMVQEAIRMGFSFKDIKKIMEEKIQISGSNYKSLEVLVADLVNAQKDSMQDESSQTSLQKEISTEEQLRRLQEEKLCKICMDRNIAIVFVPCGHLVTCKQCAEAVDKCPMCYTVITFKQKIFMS

Target: XIAP (Homo sapiens, UniProt P98170)
Assay: XIAP expression in tumors harvested from A4-treated PDXs (immunoblot densitometry)
Conditions: tumor
Protocol: FIGURE 4 Treatment with XIAP-specific antagonist A4 prolongs and improves overall survival in high-risk neuroblastoma PDXs. A, Top, Immunoblot analysis of XIAP, cleaved PARP and cleaved caspase-3 expression in tumors harvested from treated neuroblastoma PDXs. Neuroblastoma PDXs were treated with 10 mg/kg A4 via intraperitoneal injection. Tumors were harvested over the following time courses of 0, 0.5, 1, 2, 4, 24, and 48 hours after dosing. β-actin is used as internal control. Bottom, Graphical representation of densitometry ratio for XIAP expression normalized to β-actin in tumors harvested from neuroblastoma PDXs as described in A (Supplementary Data S2). Values were expressed as mean ± SD with n = 3/timepoint. B, Kaplan–Meier survival plot of MYCN-amplified neuroblastoma PDXs (n = 9/treatment group). […] The mice were monitored over a period of 7 weeks, including 4 weeks of stabilizing implantation and subsequent 3 weeks of treatment period. log-rank (Mantel–Cox test) derived from Kaplan–Meier survival plot was used for statistical comparisons between groups with *, P < 0.05. […]
Whole cell lysates harvested were lysed in EBC buffer (pH 8.0 of 50 mM Tris, 0.5% NP-40, 120 mM sodium chloride) containing protease inhibitors and protein concentration were quantified using the Bradford assay (Thermo Fisher Scientific). […]

SMILES: COC(=O)c1[nH]c2ccc(Cl)cc2c1NC(=O)CN1CCN(Cc2ccccc2)CC1
- XIAP/B-actin relative to 0 h, single sets M1, M2, M3 (2 h after 10 mg/kg i.p.): 0.7418, 1.818, 0.8734
- XIAP/B-actin relative to 0 h, single sets M1, M2, M3 (4 h after 10 mg/kg i.p.): 0.1947, 1.073, 0.6027
